{
  "source": "PubChem BioAssay AID504444",
  "about": "(National Center for Advancing Translational Sciences (NCATS), 2011)",
  "note": "In all, about 360,000 compounds went through this assay and about 7,500 (2.1%) were called active. The shares of active, inactive and inconclusive entries below differ from those in the screen. Calls come from the whole dose curve; as a rule, active = well fitted inhibition curve with a large enough effect; inconclusive = small, poorly fitted or top-dose-only effect, or effect the other way; inactive = flat fitted curve, though single readings scatter. Potencies beside an inconclusive call are fits to weak or partial responses and may not hold up. % is set by controls: 0 for no effect and ±100 for the full control effect; potency is the fitted concentration of half-maximal effect.",
  "data": [
    {"assay": "Nrf2 qHTS screen for inhibitors; note: nearly all actives have a fitted effect of over 60% in size", "settings": "A549 ARE-Fluc reporter, luciferase luminescence, 18-24 h; activity change, negative = inhibition: at 46 µM (top of the series)", "method_in_brief": "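A549 ARE_Fluc cells, 5000/well, 5% FBS OPTI-MEM; compounds in dose-response, 18-24 h at 37 °C/5% CO2; CellTiter-Fluor viability read (Ex 405/Em 525), then BugLite luciferase luminescence = Nrf2 activity.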", "values": [
      {"smiles": "O=C(Cc1ccc(Cl)cc1)Nc1ccc(NC(=O)c2ccccc2)cc1", "activity change, negative = inhibition": "inactive: 7.4%"},
      {"smiles": "CC1(C)CC(=O)c2cc(OCC(=O)N3CCCCCC3)ccc2O1", "Potency": "inconclusive: 32.6 µM [activator, single point]"},
      {"smiles": "Cn1c(=O)c(-c2ccccc2)cc2ccccc21", "Potency": "inconclusive: 20.6 µM [activator, partial curve]"},
      {"smiles": "CCc1ccc(/C=N/NC(=O)c2c[nH]c3ccccc23)s1", "Potency": "inconclusive: 4.11 µM [activator, full curve]"},
      {"smiles": "COc1ccc(CCN(C)C(=O)c2cccc(S(=O)(=O)N3CCN(c4ccc(F)cc4)CC3)c2)cc1OC", "Potency": "active: 7.31 µM"},
      {"smiles": "COc1cccc(CNC(=O)Cn2ccc3cc(S(=O)(=O)N4CCCCCC4)ccc32)c1OC", "Potency": "inconclusive: 11.6 µM [falling, partial curve]"},
      {"smiles": "O=C(COc1ccc(Cl)cc1)Nc1ccc(NC(=O)c2ccco2)cc1", "Potency": "inconclusive: 29.1 µM [activator, single point]"},
      {"smiles": "O=C(CN(Cc1ccccc1)S(=O)(=O)c1ccc2c(c1)OCCO2)N/N=C/c1cccc(Br)c1", "Potency": "inconclusive: 20.6 µM [falling, partial curve, poor fit]"},
      {"smiles": "Cc1sc2nc(SCc3ccc(C(=O)O)cc3)n(Cc3ccco3)c(=O)c2c1C", "Potency": "inconclusive: 13 µM [falling, partial curve, poor fit]"},
      {"smiles": "O=[N+]([O-])c1cc(S(=O)(=O)Nc2ccccc2)ccc1-n1nnc2ccccc21", "Potency": "inconclusive: 23.1 µM [falling, single point]"},
      {"smiles": "COc1ccc(C(=O)NCC(c2cccs2)N2CCc3ccccc32)c(OC)c1", "note": "(stereo not drawn)", "Potency": "inconclusive: 20.6 µM [falling, single point]"},
      {"smiles": "Cc1cc(N/N=C/c2ccc(O)cc2)c2cccc(C)c2n1", "activity change, negative = inhibition": "inactive: -11.1%"},
      {"smiles": "Cc1ccc(NC(=O)CN(C)C(=O)c2cccc(Br)c2)cc1", "Potency": "inconclusive: 6.51 µM [falling, single point]"},
      {"smiles": "COc1ccc(N(CC(=O)Nc2ccc(Cc3ccncc3)cc2)S(=O)(=O)c2ccccc2)cc1", "Potency": "inconclusive: 16.4 µM [falling, single point]"},
      {"smiles": "NNC(=O)c1cccn(Cc2cccc(C(F)(F)F)c2)c1=O", "Potency": "inconclusive: 20.6 µM [falling, partial curve, poor fit]"},
      {"smiles": "Cc1ccc(C(=O)OCC(=O)N2CCCC2)cc1", "Potency": "inconclusive: 5.8 µM [activator, full curve]"},
      {"smiles": "O=C(/C=C/c1ccco1)N1CCc2ccccc21", "Potency": "inconclusive: 11.6 µM [activator, partial curve]"},
      {"smiles": "CCOc1ccc(NC(=S)c2ccncc2)cc1", "Potency": "inconclusive: 23.1 µM [falling, single point]"}
    ]}
  ]
}
